Measurements as given in the supplement of paper PMC12823440, “Inhibitors supercharge kinase turnover through native proteolytic circuits” (Nature, 2025).
Counter-ions that a name gives are not always drawn. The list shows a part of the results. The calls rarely recur for the same compound in another form.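 In K562 cells expressing nanoluciferase-fused kinases, luminescence was recorded at 4 h intervals between 2 and 18 h, normalized as percent of control with DMSO at 100% and a positive control at 0%. A significant (2 sigma) signal drop marks a time point as decreased. The authors' rule for a hit is not shown and takes in more than the number of time points.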

Sequences of proteins named here, by UniProt entry; tags and fusion partners are left off.
UniProt P29317, whole entry: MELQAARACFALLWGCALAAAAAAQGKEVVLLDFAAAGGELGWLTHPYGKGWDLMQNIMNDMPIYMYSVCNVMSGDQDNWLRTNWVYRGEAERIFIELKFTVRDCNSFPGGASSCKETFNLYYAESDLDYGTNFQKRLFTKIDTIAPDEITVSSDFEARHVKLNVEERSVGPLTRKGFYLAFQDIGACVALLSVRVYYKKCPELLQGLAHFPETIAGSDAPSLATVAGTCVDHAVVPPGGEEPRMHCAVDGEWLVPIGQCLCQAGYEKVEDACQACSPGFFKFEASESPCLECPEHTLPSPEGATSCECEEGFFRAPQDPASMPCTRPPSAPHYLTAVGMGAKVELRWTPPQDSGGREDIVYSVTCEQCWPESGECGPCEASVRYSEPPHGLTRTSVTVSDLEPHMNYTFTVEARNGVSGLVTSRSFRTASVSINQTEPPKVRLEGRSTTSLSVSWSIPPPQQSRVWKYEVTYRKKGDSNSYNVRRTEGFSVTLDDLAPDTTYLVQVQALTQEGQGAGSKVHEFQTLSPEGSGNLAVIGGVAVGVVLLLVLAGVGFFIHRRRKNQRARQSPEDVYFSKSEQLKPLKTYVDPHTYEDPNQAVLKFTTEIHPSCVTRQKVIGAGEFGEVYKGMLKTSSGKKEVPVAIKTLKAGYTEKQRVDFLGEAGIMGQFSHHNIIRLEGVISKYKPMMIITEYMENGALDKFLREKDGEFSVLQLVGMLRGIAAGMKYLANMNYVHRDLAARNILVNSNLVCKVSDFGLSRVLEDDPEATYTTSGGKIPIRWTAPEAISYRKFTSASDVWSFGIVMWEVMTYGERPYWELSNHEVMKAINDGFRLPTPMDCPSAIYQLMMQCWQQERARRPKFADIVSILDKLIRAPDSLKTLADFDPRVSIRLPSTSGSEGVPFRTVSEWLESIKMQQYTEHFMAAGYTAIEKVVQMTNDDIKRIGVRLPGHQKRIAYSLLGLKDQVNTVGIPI
UniProt P21860, whole entry: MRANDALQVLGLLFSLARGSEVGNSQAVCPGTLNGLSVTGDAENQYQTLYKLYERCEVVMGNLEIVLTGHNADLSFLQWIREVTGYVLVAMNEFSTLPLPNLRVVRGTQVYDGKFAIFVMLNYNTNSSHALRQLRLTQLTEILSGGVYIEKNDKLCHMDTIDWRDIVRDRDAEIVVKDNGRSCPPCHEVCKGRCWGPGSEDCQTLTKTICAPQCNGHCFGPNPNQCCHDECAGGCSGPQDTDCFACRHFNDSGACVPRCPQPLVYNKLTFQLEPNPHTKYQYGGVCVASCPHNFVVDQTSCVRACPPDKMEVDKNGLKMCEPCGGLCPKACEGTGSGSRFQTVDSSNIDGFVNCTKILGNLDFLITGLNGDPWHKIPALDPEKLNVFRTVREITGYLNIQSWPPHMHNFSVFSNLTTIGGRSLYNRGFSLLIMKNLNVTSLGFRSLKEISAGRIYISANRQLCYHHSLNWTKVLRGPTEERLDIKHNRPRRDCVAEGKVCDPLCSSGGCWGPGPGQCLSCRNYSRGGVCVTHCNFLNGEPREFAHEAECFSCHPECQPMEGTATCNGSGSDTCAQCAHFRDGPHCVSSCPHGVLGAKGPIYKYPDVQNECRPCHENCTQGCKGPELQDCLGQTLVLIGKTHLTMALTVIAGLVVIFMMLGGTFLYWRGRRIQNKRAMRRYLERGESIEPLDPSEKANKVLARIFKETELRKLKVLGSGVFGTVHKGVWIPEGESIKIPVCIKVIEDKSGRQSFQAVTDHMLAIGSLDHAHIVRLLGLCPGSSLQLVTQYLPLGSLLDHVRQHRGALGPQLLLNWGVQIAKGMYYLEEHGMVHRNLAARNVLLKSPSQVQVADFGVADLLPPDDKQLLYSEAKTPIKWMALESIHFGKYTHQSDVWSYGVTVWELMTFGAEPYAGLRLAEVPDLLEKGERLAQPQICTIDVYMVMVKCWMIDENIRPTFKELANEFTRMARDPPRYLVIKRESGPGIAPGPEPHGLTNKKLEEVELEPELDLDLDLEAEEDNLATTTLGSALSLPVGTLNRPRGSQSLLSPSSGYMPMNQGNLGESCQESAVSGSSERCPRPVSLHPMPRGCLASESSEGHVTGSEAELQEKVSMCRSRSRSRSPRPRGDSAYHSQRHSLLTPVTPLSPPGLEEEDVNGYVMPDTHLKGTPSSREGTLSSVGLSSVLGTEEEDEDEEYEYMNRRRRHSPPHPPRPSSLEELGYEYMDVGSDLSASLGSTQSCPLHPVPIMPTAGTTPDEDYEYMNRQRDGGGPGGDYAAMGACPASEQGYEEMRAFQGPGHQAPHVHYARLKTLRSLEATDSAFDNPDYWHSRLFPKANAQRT
UniProt Q15303, whole entry R711C: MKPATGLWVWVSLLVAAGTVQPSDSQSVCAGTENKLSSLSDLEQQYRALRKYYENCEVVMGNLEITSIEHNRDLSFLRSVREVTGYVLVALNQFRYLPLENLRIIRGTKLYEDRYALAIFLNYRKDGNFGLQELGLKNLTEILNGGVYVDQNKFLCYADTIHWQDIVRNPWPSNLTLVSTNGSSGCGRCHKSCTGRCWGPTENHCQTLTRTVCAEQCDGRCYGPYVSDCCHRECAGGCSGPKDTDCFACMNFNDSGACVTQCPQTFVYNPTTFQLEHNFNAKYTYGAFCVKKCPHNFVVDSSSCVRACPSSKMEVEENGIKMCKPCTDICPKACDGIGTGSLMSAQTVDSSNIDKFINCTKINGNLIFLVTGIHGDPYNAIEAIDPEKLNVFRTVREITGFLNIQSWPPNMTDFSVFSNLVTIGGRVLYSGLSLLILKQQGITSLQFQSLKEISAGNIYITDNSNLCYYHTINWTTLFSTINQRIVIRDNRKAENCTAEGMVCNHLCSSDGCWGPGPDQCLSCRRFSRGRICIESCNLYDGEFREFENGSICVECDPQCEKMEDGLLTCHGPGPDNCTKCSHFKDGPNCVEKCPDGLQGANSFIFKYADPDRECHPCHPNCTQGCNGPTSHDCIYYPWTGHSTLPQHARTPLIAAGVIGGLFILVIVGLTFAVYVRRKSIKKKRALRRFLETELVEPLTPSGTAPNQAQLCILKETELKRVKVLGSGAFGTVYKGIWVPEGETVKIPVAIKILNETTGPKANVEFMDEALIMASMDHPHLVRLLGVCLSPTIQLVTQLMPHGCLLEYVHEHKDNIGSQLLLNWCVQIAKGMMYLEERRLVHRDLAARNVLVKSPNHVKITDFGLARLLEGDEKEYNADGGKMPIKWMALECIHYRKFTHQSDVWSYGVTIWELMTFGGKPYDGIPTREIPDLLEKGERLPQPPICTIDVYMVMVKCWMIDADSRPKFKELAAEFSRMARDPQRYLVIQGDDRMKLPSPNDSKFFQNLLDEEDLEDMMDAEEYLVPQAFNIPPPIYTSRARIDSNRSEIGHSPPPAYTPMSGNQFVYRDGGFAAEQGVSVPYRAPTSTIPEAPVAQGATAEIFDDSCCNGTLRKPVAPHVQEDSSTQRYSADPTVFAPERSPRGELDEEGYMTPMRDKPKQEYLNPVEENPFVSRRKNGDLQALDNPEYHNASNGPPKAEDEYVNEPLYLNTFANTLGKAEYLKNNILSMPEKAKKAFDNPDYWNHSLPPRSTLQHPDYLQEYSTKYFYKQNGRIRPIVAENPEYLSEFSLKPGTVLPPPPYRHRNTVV

Legend:
Experiment in all cases: kinase-Nluc reporter destabilization hit call (1 = scored as downregulated) (binary); higher = compound decreases kinase abundance
Details in all cases: K562; 2-18 h
EGFR = EGFR (UniProt P00533)
EGFR_G719S = EGFR_G719S (UniProt P00533)
EGFR_G719S_T790M = EGFR_G719S_T790M (UniProt P00533)
EGFR_L718V = EGFR_L718V (UniProt P00533)
EGFR_L858R = EGFR_L858R (UniProt P00533)
EGFR_L861Q = EGFR_L861Q (UniProt P00533)
EGFR_T790M = EGFR_T790M (UniProt P00533)
EPHA2 = EPHA2 (UniProt P29317)
ERBB3 = ERBB3 (UniProt P21860)
[1] = molecular target: ERBB4_R711C (clone: ERBB4_mut) (UniProt Q15303)

Measured: kinase-Nluc reporter destabilization hit call

CC1=C(C(=O)Nc2cc3cn[nH]c3cc2F)C(c2ccc(C(F)(F)F)cc2)CC(=O)N1 (stereo not given) (10 µM)
inactive: EGFR 0 | EGFR_G719S 0 | EGFR_G719S_T790M 0 | EGFR_L718V 0 | EGFR_L858R 0 | EGFR_L861Q 0 | EGFR_T790M 0 | EPHA2 = 0 | ERBB3 = 0 | [1] 0

O=c1c2c([nH]n1-c1nc3ccccc3s1)CCCC2 (10 µM)
inactive: EGFR 0 | EGFR_G719S 0 | EGFR_G719S_T790M 0 | EGFR_L718V 0 | EGFR_L858R 0 | EGFR_L861Q 0 | EGFR_T790M 0 | EPHA2 = 0 | ERBB3 = 0 | [1] 0

N#Cc1ccc(-c2cnc3ccc(-c4ccc(C(=O)N5CCOCC5)cc4)cn23)cc1 (10 µM)
inactive: EGFR 0 | EGFR_G719S 0 | EGFR_G719S_T790M 0 | EGFR_L718V 0 | EGFR_L858R 0 | EGFR_L861Q 0 | EGFR_T790M 0 | EPHA2 = 0 | ERBB3 = 0 | [1] 0

CC(C)n1c(=O)n(C)c2cnc3cc(F)c(-c4ccc(OCCCN5CCCCC5)nc4)cc3c21 (10 µM)
inactive: EGFR 0 | EGFR_G719S 0 | EGFR_G719S_T790M 0 | EGFR_L718V 0 | EGFR_L858R 0 | EGFR_L861Q 0 | EGFR_T790M 0 | EPHA2 = 0 | ERBB3 = 0 | [1] 0

NC(=O)c1cnc(-c2ccc(C3(N)CCC3)cc2)c(-c2ccccc2)c1 (10 µM)
inactive: EGFR 0 | EGFR_G719S 0 | EGFR_G719S_T790M 0 | EGFR_L718V 0 | EGFR_L858R 0 | EGFR_L861Q 0 | EGFR_T790M 0 | EPHA2 = 0 | ERBB3 = 0 | [1] 0

COc1cc2c(cc1O)C[C@H]1c3cc(O)c(OC)cc3CC[N@@+]1(C)C2 [Phellodendrine] (10 µM)
inactive: EGFR 0 | EGFR_G719S 0 | EGFR_G719S_T790M 0 | EGFR_L718V 0 | EGFR_L858R 0 | EGFR_L861Q 0 | EGFR_T790M 0 | EPHA2 = 0 | ERBB3 = 0 | [1] 0

CO[C@H]1C[C@@H]2CC[C@@H](C)[C@@](O)(O2)C(=O)C(=O)N2CCCC[C@H]2C(=O)O[C@H]([C@H](C)C[C@@H]2CC[C@@H](OC(=O)C(C)(CO)CO)[C@H](OC)C2)CC(=O)[C@H](C)/C=C(\C)[C@@H](O)[C@@H](OC)C(=O)[C@H](C)C[C@H](C)/C=C/C=C/C=C/1C [Temsirolimus] (2.5 µM)
inactive: EGFR 0 | EGFR_G719S 0 | EGFR_G719S_T790M 0 | EGFR_L718V 0 | EGFR_L858R 0 | EGFR_L861Q 0 | EGFR_T790M 0 | EPHA2 = 0 | ERBB3 = 0 | [1] 0

COc1ccc2c(Oc3ccc4c(C(=O)Nc5ccccc5N)cccc4c3)ccnc2c1 [Chiauranib] (10 µM)
inactive: EGFR 0 | EGFR_G719S 0 | EGFR_G719S_T790M 0 | EGFR_L718V 0 | EGFR_L858R 0 | EGFR_L861Q 0 | EGFR_T790M 0 | EPHA2 = 0 | ERBB3 = 0 | [1] 0

NCCOc1ccc(Cl)cc1C(=O)Nc1ccc([N+](=O)[O-])cc1Cl [HJC0152 hydrochloride] (2 µM)
inactive: EGFR 0 | EGFR_G719S 0 | EGFR_G719S_T790M 0 | EGFR_L718V 0 | EGFR_L858R 0 | EGFR_L861Q 0 | EGFR_T790M 0 | EPHA2 = 0 | ERBB3 = 0 | [1] 0

Cc1c(Cl)cccc1S(=O)(=O)Nc1nc(NCCc2ccccc2)nc2c1CN(Cc1ccccc1)CC2 (2.5 µM)
inactive: EGFR 0 | EGFR_G719S 0 | EGFR_G719S_T790M 0 | EGFR_L718V 0 | EGFR_L858R 0 | EGFR_L861Q 0 | EGFR_T790M 0 | EPHA2 = 0 | ERBB3 = 0 | [1] 0

CC(C)=CCC/C(C)=C/CC/C(C)=C/C=C/C(C)=C/C(=O)O [Peretinoin] (10 µM)
inactive: EGFR 0 | EGFR_G719S 0 | EGFR_G719S_T790M 0 | EGFR_L718V 0 | EGFR_L858R 0 | EGFR_L861Q 0 | EGFR_T790M 0 | EPHA2 = 0 | ERBB3 = 0 | [1] 0

COc1cc(N2CCC(N3CCN(C)CC3)CC2)ccc1Nc1ncc(Cl)c(-c2c[nH]c3ccccc23)n1 (2.5 µM)
inactive: EGFR 0 | EGFR_G719S 0 | EGFR_G719S_T790M 0 | EGFR_L718V 0 | EGFR_L858R 0 | EGFR_L861Q 0 | EGFR_T790M 0 | EPHA2 = 0 | ERBB3 = 0 | [1] 0

COc1cc(F)ccc1-c1ncnc(Nc2cccc(C[S@](C)(=N)=O)c2)n1 [Atuveciclib] (2.5 µM)
inactive: EGFR 0 | EGFR_G719S 0 | EGFR_G719S_T790M 0 | EGFR_L718V 0 | EGFR_L858R 0 | EGFR_L861Q 0 | EGFR_T790M 0 | EPHA2 = 0 | ERBB3 = 0 | [1] 0

Cn1c2cc([S+](C)[O-])sc2c2cnn(Cc3cccc(N)c3)c(=O)c21 (stereo not given) (2.5 µM)
inactive: EGFR 0 | EGFR_G719S 0 | EGFR_G719S_T790M 0 | EGFR_L718V 0 | EGFR_L858R 0 | EGFR_L861Q 0 | EGFR_T790M 0 | EPHA2 = 0 | ERBB3 = 0 | [1] 0

O=C(O)c1ccc(/C=C/S(=O)(=O)Cc2ccc(Cl)cc2)cc1 [Recilisib] (10 µM)
inactive: EGFR 0 | EGFR_G719S 0 | EGFR_G719S_T790M 0 | EGFR_L718V 0 | EGFR_L858R 0 | EGFR_L861Q 0 | EGFR_T790M 0 | EPHA2 = 0 | ERBB3 = 0 | [1] 0

CCc1c[nH]c2ncnc(N3CC[C@](N)(CNC(=O)c4ccc(F)cc4F)C3)c12 (10 µM)
inactive: EGFR 0 | EGFR_G719S 0 | EGFR_G719S_T790M 0 | EGFR_L718V 0 | EGFR_L858R 0 | EGFR_L861Q 0 | EGFR_T790M 0 | EPHA2 = 0 | ERBB3 = 0 | [1] 0

O=c1[nH]ccc2nc(-c3ccc(CN4CCC(c5nc(-c6ccccn6)n[nH]5)CC4)cc3)c(-c3ccccc3)cc12 (10 µM)
inactive: EGFR 0 | EGFR_G719S 0 | EGFR_G719S_T790M 0 | EGFR_L718V 0 | EGFR_L858R 0 | EGFR_L861Q 0 | EGFR_T790M 0 | EPHA2 = 0 | ERBB3 = 0 | [1] 0
